According to paper doi:10.1101/2023.01.23.525191:

B1: RBM14 (protein, UniProt Q96PK6 1-669)
chain: MKIFVGNVDGADTTPEELAALFAPYGTVMSCAVMKQFAFVHMRENAGALRAIEALHGHELRPGRALVVEMSRPRPLNTWKIFVGNVSAACTSQELRSLFERRGRVIECDVVKDYAFVHMEKEADAKAAIAQLNGKEVKGKRINVELSTKGQKKGPGLAVQSGDKTKKPGAGDTAFPGTGGFSATFDYQQAFGNSTGGFDGQARQPTPPFFGRDRSPLRRSPPRASYVAPLTAQPATYRAQPSVSLGAAYRAQPSASLGVGYRTQPMTAQAASYRAQPSVSLGAPYRGQLASPSSQSAAASSLGPYGGAQPSASALSSYGGQAAAASSLNSYGAQGSSLASYGNQPSSYGAQAASSYGVRAAASSYNTQGAASSLGSYGAQAASYGAQSAASSLAYGAQAASYNAQPSASYNAQSAPYAAQQAASYSSQPAAYVAQPATAAAYASQPAAYAAQATTPMAGSYGAQPVVQTQLNSYGAQASMGLSGSYGAQSAAAATGSYGAAAAYGAQPSATLAAPYRTQSSASLAASYAAQQHPQAAASYRGQPGNAYDGAGQPSAAYLSMSQGAVANANSTPPPYERTRLSPPRASYDDPYKKAVAMSKRYGSDRRLAELSDYRRLSESQLSFRRSPTKSSLDYRRLPDAHSDYARYSGSYNDYLRAAQMHSGYQRRM
B2: RBFOX2 (protein, UniProt O43251 1-390)
chain: MQNEPLTPGYHGFPARDSQGNQEPTTTPDAMVQPFTTIPFPPPPQNGIPTEYGVPHTQDYAGQTGEHNLTLYGSTQAHGEQSSNSPSTQNGSLTTEGGAQTDGQQSQTQSSENSESKSTPKRLHVSNIPFRFRDPDLRQMFGQFGKILDVEIIFNERGSKGFGFVTFENSADADRAREKLHGTVVEGRKIEVNNATARVMTNKKMVTPYANGWKLSPVVGAVYGPELYAASSFQADVSLGNDAAVPLSGRGGINTYIPLISLPLVPGFPYPTAATTAAAFRGAHLRGRGRTVYGAVRAVPPTAIPAYPGVVYQDGFYGADLYGGYAAYRYAQPATATAATAAAAAAAAYSDGYGRVYTADPYHALAPAASYGVGAVASLYRGGYSRFAPY
B3: MATR3 (protein, UniProt P43243 1-847)
chain: MSKSFQQSSLSRDSQGHGRDLSAAGIGLLAAATQSLSMPASLGRMNQGTARLASLMNLGMSSSLNQQGAHSALSSASTSSHNLQSIFNIGSRGPLPLSSQHRGDADQASNILASFGLSARDLDELSRYPEDKITPENLPQILLQLKRRRTEEGPTLSYGRDGRSATREPPYRVPRDDWEEKRHFRRDSFDDRGPSLNPVLDYDHGSRSQESGYYDRMDYEDDRLRDGERCRDDSFFGETSHNYHKFDSEYERMGRGPGPLQERSLFEKKRGAPPSSNIEDFHGLLPKGYPHLCSICDLPVHSNKEWSQHINGASHSRRCQLLLEIYPEWNPDNDTGHTMGDPFMLQQSTNPAPGILGPPPPSFHLGGPAVGPRGNLGAGNGNLQGPRHMQKGRVETSRVVHIMDFQRGKNLRYQLLQLVEPFGVISNHLILNKINEAFIEMATTEDAQAAVDYYTTTPALVFGKPVRVHLSQKYKRIKKPEGKPDQKFDQKQELGRVIHLSNLPHSGYSDSAVLKLAEPYGKIKNYILMRMKSQAFIEMETREDAMAMVDHCLKKALWFQGRCVKVDLSEKYKKLVLRIPNRGIDLLKKDKSRKRSYSPDGKESPSDKKSKTDGSQKTESSTEGKEQEEKSGEDGEKDTKDDQTEQEPNMLLESEDELLVDEEEAAALLESGSSVGDETDLANLGDVASDGKKEPSDKAVKKDGSASAAAKKKLKKVDKIEELDQENEAALENGIKNEENTEPGAESSENADDPNKDTSENADGQSDENKDDYTIPDEYRIGPYQPNVPVGIDYVIPKTGFYCKLCSLFYTNEEVAKNTHCSSLPHYQKLKKFLNKLAEERRQKKET
B4: ESRP2 (protein, UniProt Q9H6T0 1-727)
chain: MTPPPPPPPPPGPDPAADPAADPCPWPGSLVVLFGATAGALGRDLGSDETDLILLVWQVVEPRSRQVGTLHKSLVRAEAAALSTQCREASGLSADSLARAEPLDKVLQQFSQLVNGDVALLGGGPYMLCTDGQQLLRQVLHPEASRKNLVLPDMFFSFYDLRREFHMQHPSTCPARDLTVATMAQGLGLETDATEDDFGVWEVKTMVAVILHLLKEPSSQLFSKPEVIKQKYETGPCSDSTVPCPYSSKADVVDSETVVRARGLPWQSSDQDVARFFKGLNVARGGVALCLNAQGRRNGEALIRFVDSEQRDLALQRHKHHMGVRYIEVYKATGEEFVKIAGGTSLEVARFLSREDQVILRLRGLPFSAGPTDVLGFLGPECPVTGGTEGLLFVRHPDGRPTGDAFALFACEELAQAALRRHKGMLGKRYIELFRSTAAEVQQVLNRYASGPLLPTLTAPLLPIPFPLAPGTGRDCVRLRGLPYTATIEDILSFLGEAAADIRPHGVHMVLNQQGRPSGDAFIQMTSAERALAAAQRCHKKVMKERYVEVVPCSTEEMSRVLMGGTLGRSGMSPPPCKLPCLSPPTYTTFQATPTLIPTETAALYPSSALLPAARVPAAPTPVAYYPGPATQLYLNYTAYYPSPPVSPTTVGYLTTPTAALASAPTSVLSQSGALVRMQGVPYTAGMKDLLSVFQAYQLPADDYTSLMPVGDPPRTVLQAPKEWVCL

What follows are binders tested against StrepII-His6-RBPMS-A ΔC20 (rat) (assay: pull-down).

binding | Binder
binds | B1
no binding (tested: 2 μM) | B2
no binding (tested: 2 μM) | B3
no binding (tested: 2 μM) | B4

No constants are given. Whether binding was seen depends on the method and setting. In cells and extracts the contact can be indirect. Binding calls can cover weak binding; strength is not graded here.
